For at least one compound, name, drawing or mass did not settle the structure. Non-standard residues stand in square brackets, D forms with d. Residues, ends and D or L forms follow the SMILES beside them. *: point of attachment. Palmitoyl = CCCCCCCCCCCCCCCC(=O)*; Myristoyl = CCCCCCCCCCCCCC(=O)*; Lauroyl = CCCCCCCCCCCC(=O)*
Columns and labels:
[1] = tested on: Prostate cancer cell line 22RV1; experiment: Cytotoxicity, XTT viability; assay type: cell-based, human; details: 24 h incubation, read-out: LC50, Prostate cancer 22RV1
Method: (§1) Prostate cancer cell lines (CL1 and 22RV1; ATCC, USA) were grown in RPMI-1640 supplemented with 10% FCS (Biological Industries, Beit Haemek, Israel). N1H-3T3 mouse fibroblast cell line (ATCC, USA) was grown in DMEM supplemented with 10% bovine serum. To test cytotoxicity against the cancer cells, aliquots of medium containing 1×10^4 cells were distributed into a 96-well plate (Falcon). After one day, the media were replaced with 90 μl of fresh media and 10 μl of a solution containing different concentrations of the peptides. The plate was then incubated for 24 h before adding to each well 50 μl of XTT reaction solution (Biological Industries, Beit Haemek, Israel); viability was determined as previously described (Papo et al., (2003) J. Biol. Chem. 278:21018-23). The LC50 (concentration at which 50% of the cells die) for each peptide was obtained from the dose-dependent cell viability curves.

[2] = tested on: Prostate cancer cell line CL1; experiment: Cytotoxicity, XTT viability; assay type: cell-based, human; details: 24 h incubation, read-out: LC50, Prostate cancer CL1
Method: as §1

`CC(C)C[C@@H](N)C(=O)N[C@@H](CCCCN)C(=O)N[C@@H](CCCCN)C(=O)N[C@H](CC(C)C)C(=O)N[C@H](CC(C)C)C(=O)N[C@@H](CCCCN)C(=O)N[C@@H](CCCCN)C(=O)N[C@H](CC(C)C)C(=O)N[C@H](CC(C)C)C(=O)N[C@@H](CCCCN)C(=O)N[C@@H](CCCCN)C(=O)N[C@H](CC(C)C)C(N)=O` [[D]-L6K6, LKKLLKKLLKKL, reference compound] (H-[dL]KK[dL][dL]KK[dL][dL]KK[dL]-NH2; N-terminus assumed) was tested, and the CC50 [1] was > 100 µM and the CC50 [2] was > 100 µM.

For `CCCCCCCCCCCC(=O)N[C@H](CC(C)C)C(=O)N[C@@H](CCCCN)C(=O)N[C@@H](CCCCN)C(=O)N[C@H](CC(C)C)C(=O)N[C@H](CC(C)C)C(=O)N[C@@H](CCCCN)C(=O)N[C@@H](CCCCN)C(=O)N[C@H](CC(C)C)C(=O)N[C@H](CC(C)C)C(=O)N[C@@H](CCCCN)C(=O)N[C@@H](CCCCN)C(=O)N[C@H](CC(C)C)C(N)=O` [lipopeptide 22, (CH3-(CH2)10-CO-)-D-Leu-Lys-Lys-D-Leu-D-Leu-Lys-Lys-D-Leu-D-Leu-Lys-Lys-D-Leu-NH2] (Lauroyl-[dL]KK[dL][dL]KK[dL][dL]KK[dL]-NH2), the CC50 [1] was < 3.12 µM and the CC50 [2] was < 3.12 µM.

With `CCCCCCCCCCCCCC(=O)N[C@H](CC(C)C)C(=O)N[C@@H](CCCCN)C(=O)N[C@@H](CCCCN)C(=O)N[C@H](CC(C)C)C(=O)N[C@H](CC(C)C)C(=O)N[C@@H](CCCCN)C(=O)N[C@@H](CCCCN)C(=O)N[C@H](CC(C)C)C(=O)N[C@H](CC(C)C)C(=O)N[C@@H](CCCCN)C(=O)N[C@@H](CCCCN)C(=O)N[C@H](CC(C)C)C(N)=O` [lipopeptide 23, (CH3-(CH2)12-CO-)-D-Leu-Lys-Lys-D-Leu-D-Leu-Lys-Lys-D-Leu-D-Leu-Lys-Lys-D-Leu-NH2] (Myristoyl-[dL]KK[dL][dL]KK[dL][dL]KK[dL]-NH2) the CC50 [1] was < 3.12 µM and the CC50 [2] was < 3.12 µM.

In the case of `CCCCCCCCCCCCCCCC(=O)N[C@H](CC(C)C)C(=O)N[C@@H](CCCCN)C(=O)N[C@@H](CCCCN)C(=O)N[C@H](CC(C)C)C(=O)N[C@H](CC(C)C)C(=O)N[C@@H](CCCCN)C(=O)N[C@@H](CCCCN)C(=O)N[C@H](CC(C)C)C(=O)N[C@H](CC(C)C)C(=O)N[C@@H](CCCCN)C(=O)N[C@@H](CCCCN)C(=O)N[C@H](CC(C)C)C(N)=O` [lipopeptide 24, (CH3-(CH2)14-CO-)-D-Leu-Lys-Lys-D-Leu-D-Leu-Lys-Lys-D-Leu-D-Leu-Lys-Lys-D-Leu-NH2] (Palmitoyl-[dL]KK[dL][dL]KK[dL][dL]KK[dL]-NH2), the CC50 [1] is reported as < 3.12 µM and the CC50 [2] is reported as 3.12 µM.
